Data source: PubChem BioAssay AID1259299 (Sanger Institute, 2017)
The whole screen tested 794 reagents; below is an unselected part. In the full data, 9 (1.1%) are marked active. 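Calls rest on knock-down alone; synergy scores play no part in calls, and no gene passed the synergy cut.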 Viability is capped at 1. No sequences are given here. The record does not give: the amount of reagent, the time to read-out.

Assay: 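Essential genes and drug-synergistic partners among kinases and colorectal mutation genes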 (primary screen)
Cell system: human CAR1 colorectal cancer cells
Reagent: siRNA pool against human genes
Conditions: anchor drug BYL719 1 µM, cetuximab 5 µg/ml or trametinib 10 nM, or DMSO vehicle alone; exposure length not given
Measurement: 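Mean replicate viability versus non-targeting controls, turned into robust z-scores, plus drug synergy scores for BYL719, cetuximab and trametinib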
Direction: viability robust z-score, knock-down alone and viability, knock-down alone (DMSO): higher = more viable cells; synergy score with BYL719 and synergy score with cetuximab and synergy score with trametinib: higher = stronger synergy with drug (synthetic lethal)
Hit rule: 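Essential when viability robust z-score with knock-down alone (DMSO) is below -3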
Calls: active = essential (knock-down alone); inactive = no change

gene | viability robust z-score, knock-down alone | viability, knock-down alone (DMSO) (fraction of control) | synergy score with BYL719 | synergy score with cetuximab | synergy score with trametinib | Call
CDK13 | 0.789 | 1 | -0.158 | -0.073 | -0.221 | inactive
PIK3R1 | -0.0234 | 0.925 | -0.215 | -0.0807 | -0.0606 | inactive
LTK | -0.092 | 0.919 | -0.0923 | -0.0349 | -0.067 | inactive
CSNK2A1 | 0.789 | 1 | -0.129 | -0.073 | -0.13 | inactive
IRAK1 | -1.52 | 0.787 | -0.0757 | 0.0261 | 0.141 | inactive
KHK | -0.132 | 0.915 | -0.0838 | 0.0576 | 0.00644 | inactive
FGFRL1 | -0.11 | 0.917 | -0.218 | -0.073 | 0.00851 | inactive
PRKAA1 | 0.789 | 1 | -0.0739 | -0.0686 | -0.115 | inactive
NEK1 | 0.789 | 1 | -0.127 | -0.047 | -0.0489 | inactive
MAP3K5 | -0.00676 | 0.927 | -0.194 | -0.0766 | -0.152 | inactive
GSK3B | 0.404 | 0.964 | -0.195 | -0.106 | -0.178 | inactive
CDKL3 | 0.789 | 1 | -0.206 | -0.073 | -0.221 | inactive
PFKFB4 | 0.0761 | 0.934 | -0.201 | -0.113 | -0.0224 | inactive
SRMS | 0.458 | 0.969 | 0.0997 | 0.101 | 0.105 | inactive
TYRO3 | -1.1 | 0.826 | -0.196 | -0.202 | -0.0543 | inactive
PRKACG | 0.32 | 0.957 | -0.203 | -0.113 | -0.0445 | inactive
SGK1 | 0.421 | 0.966 | -0.113 | -0.0576 | -0.0827 | inactive
PRKAR2A | -1.05 | 0.83 | -0.163 | -0.122 | -0.172 | inactive
SCYL3 | 0.298 | 0.955 | -0.0333 | 0.0122 | 0.00434 | inactive
CDK6 | 0.538 | 0.977 | -0.028 | 0.0294 | 0.0312 | inactive
BRD4 | 0.304 | 0.955 | -0.107 | 0.0113 | 0.0289 | inactive
PDK4 | 0.789 | 1 | -0.141 | 0.0751 | -0.0552 | inactive
MAK | -1.55 | 0.784 | -0.0826 | -0.148 | -0.177 | inactive
CDK11B | 0.789 | 1 | -0.178 | -0.073 | -0.0893 | inactive
ZC3H11A | 0.789 | 1 | -0.0559 | -0.073 | 0.0854 | inactive

Part of the list above in another layout.
gene,"viability robust z-score, knock-down alone","viability, knock-down alone (DMSO) (fraction of control)",synergy score with BYL719,synergy score with cetuximab,synergy score with trametinib,Call
IRAK1,-1.52,0.787,-0.0757,0.0261,0.141,inactive
KHK,-0.132,0.915,-0.0838,0.0576,0.00644,inactive
FGFRL1,-0.11,0.917,-0.218,-0.073,0.00851,inactive
PRKAA1,0.789,1,-0.0739,-0.0686,-0.115,inactive
NEK1,0.789,1,-0.127,-0.047,-0.0489,inactive
MAP3K5,-0.00676,0.927,-0.194,-0.0766,-0.152,inactive
GSK3B,0.404,0.964,-0.195,-0.106,-0.178,inactive
CDKL3,0.789,1,-0.206,-0.073,-0.221,inactive

The listing continues:
gene | viability robust z-score, knock-down alone | viability, knock-down alone (DMSO) (fraction of control) | synergy score with BYL719 | synergy score with cetuximab | synergy score with trametinib | Call
DLG3 | 0.789 | 1 | -0.146 | 0.0113 | 0.0132 | inactive
NUCKS1 | 0.789 | 1 | -0.206 | -0.073 | -0.111 | inactive
CDK4 | -0.928 | 0.841 | -0.142 | -0.108 | 0.00957 | inactive
ACVR1C | 0.789 | 1 | -0.177 | -0.0692 | 0.0377 | inactive
EPHA8 | -0.024 | 0.925 | -0.141 | -0.143 | -0.125 | inactive
MERTK | -0.674 | 0.865 | -0.0788 | -0.0317 | -0.06 | inactive
RPS6KA5 | 0.595 | 0.982 | 0.0111 | 0.0953 | -0.0214 | inactive
HIPK4 | 0.789 | 1 | -0.206 | -0.073 | -0.127 | inactive
MAGI2 | -0.59 | 0.873 | -0.145 | -0.0276 | -0.00465 | inactive
PAK5 | 0.789 | 1 | -0.145 | -0.0153 | -0.0226 | inactive
OXSR1 | -1.49 | 0.79 | -0.361 | -0.216 | -0.234 | inactive
MAPK7 | 0.789 | 1 | -0.206 | -0.073 | -0.221 | inactive
EPHB6 | 0.519 | 0.975 | -0.0488 | -0.0736 | -0.0392 | inactive
PACSIN1 | 0.674 | 0.989 | -0.178 | -0.0347 | -0.0545 | inactive
PMVK | -0.835 | 0.85 | -0.173 | -0.062 | -0.0124 | inactive
MAP2K3 | 0.523 | 0.975 | -0.0502 | 0.0166 | 0.000365 | inactive
BRSK1 | 0.789 | 1 | -0.18 | -0.073 | -0.0778 | inactive
TTK | 0.253 | 0.95 | -0.183 | 0.0133 | -0.0382 | inactive
RIPK4 | -0.454 | 0.885 | -0.194 | -0.0158 | -0.1 | inactive
IKBKG | 0.42 | 0.966 | -0.0916 | -0.0725 | -0.0543 | inactive
PTEN | 0.255 | 0.951 | -0.204 | -0.0857 | -0.111 | inactive
BMX | 0.789 | 1 | -0.167 | -0.073 | -0.0842 | inactive
AKT1 | 0.789 | 1 | -0.11 | 0.037 | -0.018 | inactive
TAF1L | -1.07 | 0.828 | -0.0996 | -0.123 | -0.12 | inactive
TESK2 | 0.789 | 1 | -0.123 | -0.073 | -0.155 | inactive
DYRK2 | 0.789 | 1 | -0.108 | -0.073 | 0.012 | inactive
NR4A2 | -2.42 | 0.704 | -0.0526 | -0.0887 | -0.0321 | inactive
PRKCA | -1.68 | 0.772 | -0.164 | -0.135 | -0.121 | inactive
TWF1 | 0.265 | 0.952 | -0.117 | -0.118 | -0.232 | inactive
HUS1 | 0.457 | 0.969 | -0.22 | -0.101 | 0.0104 | inactive
CKMT2 | 0.789 | 1 | -0.0505 | -0.0401 | -0.125 | inactive
DAPK2 | 0.789 | 1 | -0.011 | -0.0496 | -0.0127 | inactive
DLG4 | -0.347 | 0.895 | -0.0456 | -0.147 | 0.0319 | inactive
ATRX | 0.789 | 1 | -0.206 | -0.073 | -0.068 | inactive
BMP2K | 0.789 | 1 | -0.0964 | 0.0666 | -0.00933 | inactive
STK31 | -0.0823 | 0.92 | -0.0742 | -0.00259 | -0.199 | inactive
MAST2 | 0.789 | 1 | -0.12 | -0.00648 | -0.046 | inactive
NME3 | 0.789 | 1 | -0.127 | -0.073 | -0.0958 | inactive
